Reference: publication PMC8546589
These are yes or no findings as the source states them, for the method shown. Binding seen in cells or lysates may run through a third protein. A yes stands for co-enrichment or nearness to the bait. Other partners may have been found. Tags and fused reporters may be left off the sequences shown.

Amino acid sequences for entries named in this document (tags omitted). A change or cut given only in a name is not applied to a line headed by its entry.
UniProt C4LTS8: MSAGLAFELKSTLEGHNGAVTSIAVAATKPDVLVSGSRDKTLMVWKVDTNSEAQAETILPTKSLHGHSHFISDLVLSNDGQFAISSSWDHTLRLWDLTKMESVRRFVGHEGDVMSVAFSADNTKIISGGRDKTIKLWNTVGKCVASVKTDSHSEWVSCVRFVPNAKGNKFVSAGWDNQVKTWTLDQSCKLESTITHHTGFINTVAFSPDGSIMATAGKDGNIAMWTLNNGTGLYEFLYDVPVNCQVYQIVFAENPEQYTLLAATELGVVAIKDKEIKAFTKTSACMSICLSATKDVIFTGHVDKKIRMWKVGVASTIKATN

Legend:
[1] = target: T1, Myc-EhRdRP1 (E. histolytica) (UniProt C4M6W7); assay: affinity purification with mass spectrometry; anti-c-Myc agarose IP from whole-cell lysate of E. histolytica lines overexpressing the Myc-tagged bait (EhAgo2-2 WT, its two mutants, EhRdRP1, EhRdRP2), 2 h at 4°C, six low-stringency washes; LC-MS/MS in triplicate; nonribosomal hits in at least 2 of 3 data sets, exclusive or ≥3-fold enriched against the Luc control
T1 sequence: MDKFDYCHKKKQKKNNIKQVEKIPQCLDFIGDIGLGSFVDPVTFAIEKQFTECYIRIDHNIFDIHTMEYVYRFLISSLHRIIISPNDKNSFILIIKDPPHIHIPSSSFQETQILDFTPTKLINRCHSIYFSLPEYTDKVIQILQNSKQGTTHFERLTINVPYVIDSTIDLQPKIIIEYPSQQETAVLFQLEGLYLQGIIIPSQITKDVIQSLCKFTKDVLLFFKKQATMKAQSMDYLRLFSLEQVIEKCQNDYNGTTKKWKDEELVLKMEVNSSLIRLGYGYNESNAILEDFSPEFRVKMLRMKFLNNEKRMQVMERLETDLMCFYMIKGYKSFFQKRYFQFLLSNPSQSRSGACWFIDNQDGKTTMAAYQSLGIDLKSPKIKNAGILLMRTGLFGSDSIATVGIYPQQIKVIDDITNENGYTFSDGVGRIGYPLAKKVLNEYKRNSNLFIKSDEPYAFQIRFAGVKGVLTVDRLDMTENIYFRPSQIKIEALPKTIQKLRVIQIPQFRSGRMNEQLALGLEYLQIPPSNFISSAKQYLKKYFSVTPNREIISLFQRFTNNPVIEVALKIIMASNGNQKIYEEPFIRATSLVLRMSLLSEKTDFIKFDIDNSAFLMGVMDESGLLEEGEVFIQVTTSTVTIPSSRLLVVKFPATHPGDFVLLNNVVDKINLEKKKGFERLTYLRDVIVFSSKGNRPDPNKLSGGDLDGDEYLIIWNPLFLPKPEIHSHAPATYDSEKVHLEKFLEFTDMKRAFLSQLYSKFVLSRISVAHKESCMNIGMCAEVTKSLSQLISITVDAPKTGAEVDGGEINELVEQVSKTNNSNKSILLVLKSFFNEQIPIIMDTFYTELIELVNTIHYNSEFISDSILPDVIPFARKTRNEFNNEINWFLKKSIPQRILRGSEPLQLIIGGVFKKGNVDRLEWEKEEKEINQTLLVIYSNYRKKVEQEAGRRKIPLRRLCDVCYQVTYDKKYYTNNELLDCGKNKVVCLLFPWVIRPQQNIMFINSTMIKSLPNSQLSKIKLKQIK

[2] = target: T2, Myc-NAP12 (E. histolytica) (UniProt C4M8H9); assay: affinity purification with mass spectrometry; anti-c-Myc agarose IP from whole-cell lysate of E. histolytica lines overexpressing Myc-NAP07, Myc-NAP12, Myc-EBP-1, Myc-GNB2L1 or Myc-Tudor-like protein; LC-MS/MS in duplicate; hits in both replicates and exclusive against the Luc control
T2 sequence: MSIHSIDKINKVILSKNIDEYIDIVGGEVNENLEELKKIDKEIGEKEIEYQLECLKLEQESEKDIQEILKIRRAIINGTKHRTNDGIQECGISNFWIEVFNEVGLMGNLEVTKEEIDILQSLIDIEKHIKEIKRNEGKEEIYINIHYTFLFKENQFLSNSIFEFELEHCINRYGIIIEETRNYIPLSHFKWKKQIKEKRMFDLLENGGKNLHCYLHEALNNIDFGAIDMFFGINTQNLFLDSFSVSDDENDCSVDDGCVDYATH

[3] = target: T3, Myc-Tudor-like protein (E. histolytica) (UniProt C4M0A8); assay: as above
T3 sequence: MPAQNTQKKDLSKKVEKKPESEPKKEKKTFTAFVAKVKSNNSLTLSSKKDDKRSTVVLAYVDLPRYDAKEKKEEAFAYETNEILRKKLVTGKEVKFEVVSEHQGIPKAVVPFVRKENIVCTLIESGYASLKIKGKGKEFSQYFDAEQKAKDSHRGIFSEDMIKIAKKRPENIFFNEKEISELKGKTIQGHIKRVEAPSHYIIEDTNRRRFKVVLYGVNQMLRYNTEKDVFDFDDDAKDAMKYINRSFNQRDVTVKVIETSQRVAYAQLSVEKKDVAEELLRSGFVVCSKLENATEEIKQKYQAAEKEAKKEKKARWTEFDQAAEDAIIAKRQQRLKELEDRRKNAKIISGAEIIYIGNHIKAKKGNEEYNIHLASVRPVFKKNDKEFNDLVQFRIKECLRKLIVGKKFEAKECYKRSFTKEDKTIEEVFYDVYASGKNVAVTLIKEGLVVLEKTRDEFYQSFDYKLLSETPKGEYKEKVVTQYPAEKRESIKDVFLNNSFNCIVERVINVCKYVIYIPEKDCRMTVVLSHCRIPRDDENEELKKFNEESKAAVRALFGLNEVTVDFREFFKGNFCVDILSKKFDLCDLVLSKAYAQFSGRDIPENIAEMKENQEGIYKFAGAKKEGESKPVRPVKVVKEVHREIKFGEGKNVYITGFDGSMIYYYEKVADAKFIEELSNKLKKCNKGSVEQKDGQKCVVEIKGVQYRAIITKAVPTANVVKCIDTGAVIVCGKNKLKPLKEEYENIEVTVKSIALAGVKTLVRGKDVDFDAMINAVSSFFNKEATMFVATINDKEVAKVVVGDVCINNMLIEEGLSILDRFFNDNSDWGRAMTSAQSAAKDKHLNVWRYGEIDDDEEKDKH

[4] = target: T4, Myc-NAP07 (E. histolytica) (UniProt C4M608); assay: as above
T4 sequence: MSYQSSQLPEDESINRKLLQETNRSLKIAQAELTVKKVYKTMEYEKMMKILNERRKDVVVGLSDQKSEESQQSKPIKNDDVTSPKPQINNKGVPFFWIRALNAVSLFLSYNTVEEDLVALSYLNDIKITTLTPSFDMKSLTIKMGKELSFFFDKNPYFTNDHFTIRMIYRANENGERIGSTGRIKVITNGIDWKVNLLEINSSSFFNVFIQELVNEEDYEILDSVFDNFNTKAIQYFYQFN

Measured: binding

guanine nucleotide-binding protein subunit beta 2-like 1 (endogenous) (from UniProt C4LTS8)
binds: all assays above

B1: enhancer binding protein-1 (endogenous) (protein, UniProt C4M5C4 1-306)
chain: MTTLYVSHLDYSLKVEDVQNAFKTYNPKEVKIISTPIGYSRGFAFIEFATPQEAEKALEMDRHTIGKMEIKVQKALPKEETTTERKMNRRGFKGKRNTRKRHLVKRTNEVTDNMLFIKNLPFAITEEKLKEMFSKFGVVEITLIKTHRKKGNVTKNNGIAFITVKTAEEQKKAIAEMNNFEVEGRKITVAAAYKKVENKQTTKKTNEPKSLSETNVFVKNLPFTLTDEGFKKLFEKYDVVEATIVKRHNKKLNVDRSKGYGFVTFKTAEQQKKAIAEMDNFEVEGRKITVTSAYQRAEKKEETTSN
binds: [2] | [3] | [4]
